Reference: patent publication US8980226B2, “Aerosolized fosfomycin/aminoglycoside combination for the treatment of bacterial respiratory infections” (Gilead Sciences, Inc., priority 2004, dated 2015)
Some of these results come from one statement about several compounds together.

Test system: E. coli ATCC 25922
Assay: Animal efficacy, rat lung infection, aerosol administration
Format: in vivo
Settings: fosfomycin or tobramycin alone, comparators of the 9:1 combination (FIGS. 16 and 17)
Protocol: The in vivo efficacy of aerosolized fosfomycin alone, tobramycin alone and combinations of fosfomycin plus tobramycin were evaluated against E. coli ATCC 25922 and P. aeruginosa ATCC 27853 in rat lungs. The bacterial inoculum used to establish the rat lung infections consisted of a mixture of bacteria and agarose beads. E. coli ATCC 25922 or P. aeruginosa ATCC 27853 was streaked onto blood agar plates and incubated for 18-24 hours at 35° C. Two to three colonies were inoculated into 10 mL Tryptic Soy Broth (hereafter referred to as TSB) and incubated statically at 35° C. for 1.5 to 2 hours. The culture was adjusted to an optical density of 0.1 (625 nm) in fresh TSB and then diluted 1:5 in TSB. One milliliter of bacterial suspension (approximately 10^7 CFU/mL) was added to 10 mL of a 2% noble agar solution and briefly mixed by inversion. The mixture was added to 150 mL of heavy white mineral oil equilibrated to 55° C. and stirred on ice for 5 minutes. The cooled suspension was poured into a 250 mL centrifuge tube and centrifuged at 3,000 rpm, 4° C., for 10 minutes. The supernatant was decanted off, the pellet resuspended in 25 mL of normal sterile saline, and transferred to a 50 mL conical centrifuge tube. […]
Bacterial killing was evaluated 18 hours after the last exposure. […] The lungs were removed aseptically, excess tissue removed and the lung weight determined. […]

| Structure (SMILES) | killing of E. coli in the rat lung |
| --- | --- |
| NC[C@H]1O[C@H](O[C@H]2[C@H](O)[C@@H](O[C@H]3O[C@H](CO)[C@@H](O)[C@H](N)[C@H]3O)[C@H](N)C[C@@H]2N)[C@H](N)C[C@@H]1O [Tobramycin] | less than 1 log 10 |
| C[C@@H]1O[C@@H]1P(=O)(O)O [Fosfomycin] | less than 1 log 10 |
